Article PMC5368057, “Structural, thermodynamic, and phosphatidylinositol 3‐phosphate binding properties of Phafin2” (Protein Science : A Publication of the Protein Society, 2017)
These are yes or no findings as the source states them, for the method shown.

Target: Phafin2 (human) (UniProt Q9H8W4)
Test: AUC; sedimentation velocity; Phafin2 10 uM in 8 mM Tris-HCl (pH 7.3), 50 mM NaCl; 20°C, 50,000 rpm, absorbance at 230 nm; both purified

B1: Phafin2 (protein, UniProt Q9H8W4 1-249)
chain: GSMVDRLANSEANTRRISIVENCFGAAGQPLTIPGRVLIGEGVLTKLCRKKPKARQFFLFNDILVYGNIVIQKKKYNKQHIIPLENVTIDSIKDEGDLRNGWLIKTPTKSFAVYAATATEKSEWMNHINKCVTDLLSKSGKTPSNEHAAVWVPDSEATVCMRCQKAKFTPVNRRHHCRKCGFVVCGPCSEKRFLLPSQSSKPVRICDFCYDLLSAGDMATCQPARSDSYSQSLKSPLNDMSDDDDDDDSSD
binding: no binding (tested: 10 μΜ)
